Data: patent publication US11382328B2, “Rapid drug discovery methods for pathogen inactivation” (priority 2019, dated 2022)
The name of at least one read-out is uncertain.

Tested on: E. coli strain W3110
Assay: Synergy assays: Biolog chemical sensitivity panels with Group IB metal, coefficient of drug interaction (CDI) from relative growth
Assay type: cell-based
Conditions: Gold 50 μM

Compound	CDI (coefficient of drug interaction) (biocide concentration 2 of 4)	CDI (coefficient of drug interaction) (biocide concentration 1 of 4)
Nc1ncn([C@@H]2O[C@H](CO)[C@@H](O)[C@H]2O)c(=O)n1 [5-Azacytidine]	0.90	
CCn1cc(C(=O)O)c(=O)c2cc(F)c(N3CCNCC3)cc21 [norfloxacin]		0.80
